Results on three molecules are retold here after patent US20180320217A1, “METHODS FOR SAMPLING AND MEASURING ORAL LAVAGE PROTEINS” (The Procter & Gamble Company, priority 2017, published 2018).

In this data set the test system is proteins in oral lavage. The data set can be described thus: Abundance of proteins in human oral lavage (SomaLogic), TABLE 1. The format is in vivo. The note with it: for Means (Original Scale) High bleeder BL / Means (Original Scale) High bleeder W4 / Means (Original Scale) Low bleeder BL: abundance in oral lavage; for Means (Original Scale) High bleeder BL: high bleeders (gingivitis); for Means (Original Scale) High bleeder BL / Means (Original Scale) Low bleeder BL: baseline; for Means (Original Scale) High bleeder W4 / Fold Change High bleeder W4 vs High bleeder BL: high bleeders; for Means (Original Scale) High bleeder W4: week 4 of investigative products; for Means (Original Scale) Low bleeder BL: low bleeders (healthy); for Fold Change High bleeder W4 vs High bleeder BL / Fold Change High bleeder BL vs Low bleeder BL: oral lavage.

Where [1] appears, read: week 4 of treatment vs baseline.
[2] abbreviates: high vs low bleeders at baseline.

B1: S-formylglutathione hydrolase (protein, UniProt P10768 2-282, looked up)
S-formylglutathione hydrolase: ALKQISSNKCFGGLQKVFEHDSVELNCKMKFAVYLPPKAETGKCPALYWLSGLTCTEQNFISKSGYHQSASEHGLVVIAPDTSPRGCNIKGEDESWDFGTGAGFYVDATEDPWKTNYRMYSYVTEELPQLINANFPVDPQRMSIFGHSMGGHGALICALKNPGKYKSVSAFAPICNPVLCPWGKKAFSGYLGTDQSKWKAYDATHLVKSYPGSQLDILIDQGKDDQFLLDGQLLPDNFIAACTEKKIPVVFRLQEGYDHSYYFIATFITDHIRHHAKYLNA
In the case of B1, the “Means (Original Scale) High bleeder BL” value was determined as 455, the “Means (Original Scale) High bleeder W4” value stood at 283 and the “Means (Original Scale) Low bleeder BL” value worked out at 122. Moreover, under setting [1], the “Fold Change High bleeder W4 vs High bleeder BL” value (shortened to “Fold Change High bleeder W4”) was found to be 0.62. For the same molecule, the “Fold Change High bleeder BL vs Low bleeder BL” value (shortened to “Fold Change High bleeder BL”) under setting [2] is 4.02.

B2: Sialic acid-binding Ig-like lectin 14 (protein, UniProt Q08ET2 17-396, looked up)
Sialic acid-binding Ig-like …: EKPVYELQVQKSVTVQEGLCVLVPCSFSYPWRSWYSSPPLYVYWFRDGEIPYYAEVVATNNPDRRVKPETQGRFRLLGDVQKKNCSLSIGDARMEDTGSYFFRVERGRDVKYSYQQNKLNLEVTALIEKPDIHFLEPLESGRPTRLSCSLPGSCEAGPPLTFSWTGNALSPLDPETTRSSELTLTPRPEDHGTNLTCQVKRQGAQVTTERTVQLNVSYAPQNLAISIFFRNGTGTALRILSNGMSVPIQEGQSLFLACTVDSNPPASLSWFREGKALNPSQTSMSGTLELPNIGAREGGEFTCRVQHPLGSQHLSFILSVQRSSSSCICVTEKQQGSWPLVLTLIRGALMGAGFLLTYGLTWIYYTRCGGPQQSRAERPG
Regarding B2, the “Means (Original Scale) High bleeder BL” value was found to be 1602, the “Means (Original Scale) High bleeder W4” value is 996 and the “Means (Original Scale) Low bleeder BL” value is recorded as 1489. For the same molecule, the “Fold Change High bleeder W4” value under setting [1] was 0.70. Also, under setting [2], the “Fold Change High bleeder BL” value amounted to 1.43.

B3: Angiotensinogen (protein, UniProt P01019 25-476, looked up)
Angiotensinogen: DRVYIHPFHLVIHNESTCEQLAKANAGKPKDPTFIPAPIQAKTSPVDEKALQDQLVLVAAKLDTEDKLRAAMVGMLANFLGFRIYGMHSELWGVVHGATVLSPTAVFGTLASLYLGALDHTADRLQAILGVPWKDKNCTSRLDAHKVLSALQAVQGLLVAQGRADSQAQLLLSTVVGVFTAPGLHLKQPFVQGLALYTPVVLPRSLDFTELDVAAEKIDRFMQAVTGWKTGCSLMGASVDSTLAFNTYVHFQGKMKGFSLLAEPQEFWVDNSTSVSVPMLSGMGTFQHWSDIQDNFSVTQVPFTESACLLLIQPHYASDLDKVEGLTFQQNSLNWMKKLSPRTIHLTMPQLVLQGSYDLQDLLAQAELPAILHTELNLQKLSNDRIRVGEVLNSIFFELEADEREPTESTQQLNKPEVLEVTLNRPFLFAVYDQSATALHFLGRVANPLSTA
As for B3, the “Means (Original Scale) High bleeder BL” value was 39831, the “Means (Original Scale) High bleeder W4” value was determined as 25334 and the “Means (Original Scale) Low bleeder BL” value is on record as 13227. Further, the “Fold Change High bleeder BL” value (high bleeders vs low bleeders at baseline) was 6.12. Moreover, the “Fold Change High bleeder W4” value (week 4 of investigative products vs baseline) came out at 0.95.
